Source: the supplement of paper PMC10849652
This is one part of the list.

Chains of the proteins cited; added tags and fusions are not shown. Lines headed by an entry give the natural chain unless they say otherwise; changes in a name come on top.
UniProt Q9UKJ3: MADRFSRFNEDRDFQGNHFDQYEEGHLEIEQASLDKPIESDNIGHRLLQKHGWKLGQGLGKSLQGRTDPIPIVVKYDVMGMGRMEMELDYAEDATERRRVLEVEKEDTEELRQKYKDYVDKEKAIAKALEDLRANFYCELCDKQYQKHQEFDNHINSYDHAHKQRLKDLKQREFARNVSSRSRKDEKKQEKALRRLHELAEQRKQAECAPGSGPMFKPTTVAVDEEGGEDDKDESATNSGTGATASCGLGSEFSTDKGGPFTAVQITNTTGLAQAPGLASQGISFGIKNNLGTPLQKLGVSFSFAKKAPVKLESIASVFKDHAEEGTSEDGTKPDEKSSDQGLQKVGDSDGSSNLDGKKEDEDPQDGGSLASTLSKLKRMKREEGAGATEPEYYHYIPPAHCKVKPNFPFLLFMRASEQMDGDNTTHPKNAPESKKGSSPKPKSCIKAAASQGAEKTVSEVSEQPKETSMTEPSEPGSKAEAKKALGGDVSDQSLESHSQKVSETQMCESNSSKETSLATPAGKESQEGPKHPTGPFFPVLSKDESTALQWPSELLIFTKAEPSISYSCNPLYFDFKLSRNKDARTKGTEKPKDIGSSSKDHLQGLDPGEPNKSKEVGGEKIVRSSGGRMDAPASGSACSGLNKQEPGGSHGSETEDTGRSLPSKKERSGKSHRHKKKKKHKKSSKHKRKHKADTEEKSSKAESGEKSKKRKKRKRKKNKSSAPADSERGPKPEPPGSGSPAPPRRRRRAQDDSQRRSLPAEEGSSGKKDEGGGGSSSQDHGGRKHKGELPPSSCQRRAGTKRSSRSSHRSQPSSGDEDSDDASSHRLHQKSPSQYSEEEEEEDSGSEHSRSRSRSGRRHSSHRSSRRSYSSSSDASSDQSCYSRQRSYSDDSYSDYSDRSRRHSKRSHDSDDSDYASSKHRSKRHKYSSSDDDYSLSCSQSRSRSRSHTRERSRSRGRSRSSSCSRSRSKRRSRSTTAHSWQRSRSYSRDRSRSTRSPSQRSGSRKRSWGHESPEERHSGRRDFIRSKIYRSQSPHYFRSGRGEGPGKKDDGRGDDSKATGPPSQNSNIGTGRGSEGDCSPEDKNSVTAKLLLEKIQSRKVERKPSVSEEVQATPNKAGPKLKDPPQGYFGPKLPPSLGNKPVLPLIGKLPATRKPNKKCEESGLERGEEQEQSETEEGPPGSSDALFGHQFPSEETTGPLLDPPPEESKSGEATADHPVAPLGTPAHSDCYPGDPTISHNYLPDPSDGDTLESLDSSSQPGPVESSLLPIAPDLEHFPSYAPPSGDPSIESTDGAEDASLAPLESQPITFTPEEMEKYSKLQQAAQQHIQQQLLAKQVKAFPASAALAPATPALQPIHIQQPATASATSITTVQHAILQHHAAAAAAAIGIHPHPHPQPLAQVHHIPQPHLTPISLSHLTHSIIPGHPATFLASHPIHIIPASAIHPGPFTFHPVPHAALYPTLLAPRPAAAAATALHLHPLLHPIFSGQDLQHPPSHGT
UniProt P49915: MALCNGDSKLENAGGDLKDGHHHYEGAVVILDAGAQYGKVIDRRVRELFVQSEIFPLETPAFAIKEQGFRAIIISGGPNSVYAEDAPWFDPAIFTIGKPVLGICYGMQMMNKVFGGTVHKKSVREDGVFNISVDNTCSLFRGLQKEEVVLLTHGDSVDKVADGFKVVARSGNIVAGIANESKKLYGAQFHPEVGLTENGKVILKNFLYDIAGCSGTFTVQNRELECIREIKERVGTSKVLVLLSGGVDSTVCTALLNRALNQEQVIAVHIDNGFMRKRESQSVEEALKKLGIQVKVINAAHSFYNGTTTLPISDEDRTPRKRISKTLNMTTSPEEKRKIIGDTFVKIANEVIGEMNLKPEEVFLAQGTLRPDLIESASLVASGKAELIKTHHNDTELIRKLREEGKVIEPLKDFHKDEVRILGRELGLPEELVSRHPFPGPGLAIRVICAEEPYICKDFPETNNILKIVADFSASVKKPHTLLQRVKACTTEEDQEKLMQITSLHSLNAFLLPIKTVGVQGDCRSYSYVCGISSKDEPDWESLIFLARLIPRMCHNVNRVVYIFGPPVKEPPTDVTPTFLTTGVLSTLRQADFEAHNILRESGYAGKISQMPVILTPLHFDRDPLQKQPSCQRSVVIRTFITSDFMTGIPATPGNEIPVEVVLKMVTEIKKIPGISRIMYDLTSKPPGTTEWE
UniProt Q5JWF2, whole entry, looked up: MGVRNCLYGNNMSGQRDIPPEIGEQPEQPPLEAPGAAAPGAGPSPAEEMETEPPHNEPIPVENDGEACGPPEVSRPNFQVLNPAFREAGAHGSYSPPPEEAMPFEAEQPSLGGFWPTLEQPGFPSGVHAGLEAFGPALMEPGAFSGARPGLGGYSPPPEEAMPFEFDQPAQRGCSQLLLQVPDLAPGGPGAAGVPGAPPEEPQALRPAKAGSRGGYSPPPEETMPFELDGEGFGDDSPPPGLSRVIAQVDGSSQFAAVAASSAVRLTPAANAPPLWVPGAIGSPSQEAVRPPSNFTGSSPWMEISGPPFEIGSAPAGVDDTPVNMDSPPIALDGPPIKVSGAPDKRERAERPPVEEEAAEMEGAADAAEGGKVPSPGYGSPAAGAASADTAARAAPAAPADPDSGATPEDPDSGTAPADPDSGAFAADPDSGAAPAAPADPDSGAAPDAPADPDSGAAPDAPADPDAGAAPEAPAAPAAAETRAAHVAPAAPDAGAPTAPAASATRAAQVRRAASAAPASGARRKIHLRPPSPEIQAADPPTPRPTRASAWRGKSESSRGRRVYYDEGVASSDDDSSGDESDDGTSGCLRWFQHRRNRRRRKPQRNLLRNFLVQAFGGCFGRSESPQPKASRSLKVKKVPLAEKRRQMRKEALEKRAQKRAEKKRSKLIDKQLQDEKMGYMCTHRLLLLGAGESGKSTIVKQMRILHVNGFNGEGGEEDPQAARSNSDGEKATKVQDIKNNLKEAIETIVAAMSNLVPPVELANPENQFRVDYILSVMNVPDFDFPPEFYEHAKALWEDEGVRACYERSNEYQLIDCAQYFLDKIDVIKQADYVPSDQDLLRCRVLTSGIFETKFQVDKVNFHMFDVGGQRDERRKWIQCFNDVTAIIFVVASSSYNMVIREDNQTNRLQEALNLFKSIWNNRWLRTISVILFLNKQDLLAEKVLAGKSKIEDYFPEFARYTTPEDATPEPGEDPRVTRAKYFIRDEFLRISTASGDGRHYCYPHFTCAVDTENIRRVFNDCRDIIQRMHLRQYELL
UniProt P62873, whole entry, looked up: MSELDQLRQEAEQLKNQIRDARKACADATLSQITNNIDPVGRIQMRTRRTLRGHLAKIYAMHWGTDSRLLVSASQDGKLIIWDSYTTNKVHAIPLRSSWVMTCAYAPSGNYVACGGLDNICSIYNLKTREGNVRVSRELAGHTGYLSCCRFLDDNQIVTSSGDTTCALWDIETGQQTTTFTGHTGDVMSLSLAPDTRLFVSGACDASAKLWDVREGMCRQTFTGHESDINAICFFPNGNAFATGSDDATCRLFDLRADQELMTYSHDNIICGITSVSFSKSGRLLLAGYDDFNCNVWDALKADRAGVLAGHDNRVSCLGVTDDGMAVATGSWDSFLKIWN
UniProt Q9NQX3: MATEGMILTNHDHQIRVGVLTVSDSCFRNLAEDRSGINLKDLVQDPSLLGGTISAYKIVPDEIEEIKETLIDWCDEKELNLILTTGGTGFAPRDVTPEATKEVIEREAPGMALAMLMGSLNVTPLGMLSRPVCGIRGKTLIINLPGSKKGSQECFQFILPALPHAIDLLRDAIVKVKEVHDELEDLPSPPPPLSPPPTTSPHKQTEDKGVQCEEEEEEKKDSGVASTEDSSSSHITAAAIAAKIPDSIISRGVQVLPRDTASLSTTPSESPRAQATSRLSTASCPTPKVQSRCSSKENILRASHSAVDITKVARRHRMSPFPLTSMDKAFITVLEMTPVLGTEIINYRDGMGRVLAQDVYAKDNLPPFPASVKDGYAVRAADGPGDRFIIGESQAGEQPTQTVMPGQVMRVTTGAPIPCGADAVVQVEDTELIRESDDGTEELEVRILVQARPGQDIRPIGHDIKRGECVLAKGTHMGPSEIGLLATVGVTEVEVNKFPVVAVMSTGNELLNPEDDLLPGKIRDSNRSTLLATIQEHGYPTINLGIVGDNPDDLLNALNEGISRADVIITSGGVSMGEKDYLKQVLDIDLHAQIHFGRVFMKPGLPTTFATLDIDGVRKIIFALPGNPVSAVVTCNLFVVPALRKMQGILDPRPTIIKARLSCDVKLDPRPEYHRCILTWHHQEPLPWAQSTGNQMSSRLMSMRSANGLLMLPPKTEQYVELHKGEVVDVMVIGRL
UniProt P50148, whole entry, looked up: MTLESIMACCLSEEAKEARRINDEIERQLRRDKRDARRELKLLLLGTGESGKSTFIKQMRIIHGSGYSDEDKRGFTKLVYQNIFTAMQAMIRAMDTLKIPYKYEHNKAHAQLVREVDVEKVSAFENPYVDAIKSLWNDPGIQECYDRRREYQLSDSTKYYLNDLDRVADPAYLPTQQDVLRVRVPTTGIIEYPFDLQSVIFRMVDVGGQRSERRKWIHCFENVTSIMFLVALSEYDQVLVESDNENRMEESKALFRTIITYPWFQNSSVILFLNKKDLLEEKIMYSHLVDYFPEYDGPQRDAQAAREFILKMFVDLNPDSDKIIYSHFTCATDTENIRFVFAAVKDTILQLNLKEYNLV
UniProt Q86WP2: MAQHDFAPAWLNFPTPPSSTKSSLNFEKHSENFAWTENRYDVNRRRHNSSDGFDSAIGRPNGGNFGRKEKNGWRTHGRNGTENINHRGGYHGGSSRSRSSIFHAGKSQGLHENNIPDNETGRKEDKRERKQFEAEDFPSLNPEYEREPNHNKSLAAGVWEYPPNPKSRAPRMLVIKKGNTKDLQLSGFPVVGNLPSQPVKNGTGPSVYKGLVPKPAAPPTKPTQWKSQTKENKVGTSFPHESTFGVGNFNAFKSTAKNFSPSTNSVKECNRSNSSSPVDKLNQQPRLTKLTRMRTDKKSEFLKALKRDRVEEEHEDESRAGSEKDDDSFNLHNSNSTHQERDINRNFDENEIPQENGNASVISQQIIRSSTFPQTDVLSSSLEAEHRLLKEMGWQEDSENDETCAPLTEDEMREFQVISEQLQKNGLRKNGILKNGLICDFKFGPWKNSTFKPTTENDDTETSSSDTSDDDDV
UniProt Q13098: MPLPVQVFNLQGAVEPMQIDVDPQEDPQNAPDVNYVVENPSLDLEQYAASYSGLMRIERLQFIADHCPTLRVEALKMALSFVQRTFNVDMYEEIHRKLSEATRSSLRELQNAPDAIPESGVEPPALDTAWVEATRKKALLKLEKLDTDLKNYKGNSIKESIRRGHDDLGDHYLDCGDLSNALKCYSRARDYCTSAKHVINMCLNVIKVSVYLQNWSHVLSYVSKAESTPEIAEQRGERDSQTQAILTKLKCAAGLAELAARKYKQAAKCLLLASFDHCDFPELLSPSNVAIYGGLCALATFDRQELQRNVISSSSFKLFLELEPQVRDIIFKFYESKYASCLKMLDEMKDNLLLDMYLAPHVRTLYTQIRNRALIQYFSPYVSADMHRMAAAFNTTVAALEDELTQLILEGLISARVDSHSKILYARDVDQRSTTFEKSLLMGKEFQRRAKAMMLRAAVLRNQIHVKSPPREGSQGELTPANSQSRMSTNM
UniProt Q9H4A5: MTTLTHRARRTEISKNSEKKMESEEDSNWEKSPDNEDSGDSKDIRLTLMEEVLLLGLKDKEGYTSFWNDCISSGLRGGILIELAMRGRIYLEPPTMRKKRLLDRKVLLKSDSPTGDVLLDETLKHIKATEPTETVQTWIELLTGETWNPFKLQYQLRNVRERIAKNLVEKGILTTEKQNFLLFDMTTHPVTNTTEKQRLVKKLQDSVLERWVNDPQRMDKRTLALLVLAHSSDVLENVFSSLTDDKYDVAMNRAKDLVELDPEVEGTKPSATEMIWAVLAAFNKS
UniProt Q8IVV7: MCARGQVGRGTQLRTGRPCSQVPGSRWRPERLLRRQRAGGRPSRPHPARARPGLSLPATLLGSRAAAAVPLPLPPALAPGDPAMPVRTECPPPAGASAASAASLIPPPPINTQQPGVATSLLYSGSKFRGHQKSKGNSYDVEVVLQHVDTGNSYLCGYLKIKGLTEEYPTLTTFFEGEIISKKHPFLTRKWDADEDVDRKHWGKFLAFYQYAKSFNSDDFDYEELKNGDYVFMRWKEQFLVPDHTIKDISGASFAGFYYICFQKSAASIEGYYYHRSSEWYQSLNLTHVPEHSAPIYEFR
UniProt O76003: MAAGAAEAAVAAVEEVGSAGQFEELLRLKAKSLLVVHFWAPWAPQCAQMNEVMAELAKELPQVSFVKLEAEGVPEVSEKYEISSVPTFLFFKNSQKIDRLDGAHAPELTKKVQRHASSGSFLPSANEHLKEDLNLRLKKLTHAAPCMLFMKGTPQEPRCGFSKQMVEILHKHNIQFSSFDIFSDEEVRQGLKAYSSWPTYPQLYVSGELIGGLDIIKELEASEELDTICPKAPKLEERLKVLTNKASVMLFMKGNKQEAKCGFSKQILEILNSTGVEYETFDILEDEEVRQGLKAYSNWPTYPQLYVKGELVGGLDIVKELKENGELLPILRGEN

Key:
Experiment in all cases: log2 fold change, soluble protein after heating vs DMSO (PISA); higher = thermal stabilisation; K562 lysate, 10 uM; active = over 0.2 and 3.5 SD of the protein, either way, in both replicates (recomputed)
erlotinib = compound: C#Cc1cccc(Nc2ncnc3cc(OCCOC)c(OCCOC)cc23)c1 [erlotinib]
How it was run: (§1)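 A 30 min treatment with 10 μM compound was applied to crude K562 extract at 1 mg/mL protein in PBS pH 7.4 with 1 mM MgCl2. Heating for 3 min spanned 48°C-58°C, after which aliquots were pooled, adjusted to 0.5% NP-40 at 4°C and spun at 21,000xg for 90 min. TMTpro 16plex LC-MS/MS of the supernatant, with channel sums equalised, gave values recorded as log-two fold change in thermal stability against solvent controls, from duplicates.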

[1] = compound: C/C(=N\NC(=O)C1=CC(=CC=C1)S(=O)(=O)N2CCOCC2)/C3=C(C=CC(=C3)Cl)O
How it was run: as §1

[2] = compound: C1=CC(=CC=C1C2=NC3=C(N2)C=C(C=C3)C(=O)N)OC4=CC=C(C=C4)Cl
How it was run: as §1

[3] = compound: C1=CC2=C(C=CC(=C2)/C=C\3/C(=O)NC(=NCC4=CC=CS4)S3)N=C1
How it was run: as §1

[4] = compound: C1=CC2=NC=CN=C2C=C1/C=C/3\C(=O)NC(=O)S3
How it was run: as §1

[5] = compound: C1=CC=C(C=C1)C2=NC(=C(N2)C3=CC=NC=C3)C4=CC(=C(C=C4)Cl)O
How it was run: as §1

[6] = compound: C1=CC=C2C(=C1)C3=NNC4=CC=CC(=C43)C2=O
How it was run: as §1

[7] = compound: C1CCN(C1)C(=O)NC2=CC=CC(=C2)NC3=NC=C(C(=N3)NCCC4=CN=CN4)Br
How it was run: as §1

[8] = compound: C1CN(CCC1(CC2=CC=C(C=C2)Cl)N)C3=NC=NC4=C3C=CN4
How it was run: as §1

IRAK-1-4 Inhibitor I = compound: C1COCCN1CCN2C3=CC=CC=C3N=C2NC(=O)C4=CC(=CC=C4)[N+](=O)[O-] [IRAK-1-4 Inhibitor I]
How it was run: as §1

ibrutinib = compound: C=CC(=O)N1CCC[C@@H](n2nc(-c3ccc(Oc4ccccc4)cc3)c3c(N)ncnc32)C1 [ibrutinib]
How it was run: as §1

[9] = compound: CC(=O)c1cnc2ccc(-c3cc(Cl)c(O)c(Cl)c3)nc2c1N[C@H]1CC[C@H](CN(C)C)CC1
How it was run: as §1

ralimetinib = compound: CC(C)(C)Cn1c(N)nc2ccc(-c3[nH]c(C(C)(C)C)nc3-c3ccc(F)cc3)nc21 [ralimetinib]
How it was run: as §1

[10] = compound: CC(C)(O)CC(=O)NCCn1ccc2ncnc(Nc3ccc(Oc4cccc(C(F)(F)F)c4)c(Cl)c3)c21
How it was run: as §1

[11] = compound: CC(C)C1=C2N=C(C=C(N2N=C1)NCC3=CC=CC=C3)NCCCCCCN
How it was run: as §1

[12] = compound: CC1=C(C(CC(=O)N1)C2=CC=C(C=C2)C(F)(F)F)C(=O)NC3=C(C=C4C(=C3)C=NN4)F
How it was run: as §1

[13] = compound: CC1=C(C2=C(C=C1)C(=O)C3=CC=CC=C3N2CCCN)C
How it was run: as §1

[14] = compound: CC1=C(C=C(C=C1)NC(=O)C2=CC(=CC=C2)C(C)(C)C#N)NC3=CC4=C(C=C3)N=CN(C4=O)C
How it was run: as §1

[15] = compound: CC1=C(C=C(C=C1)NC(=O)C2=CC(=CC=C2)N(C)C)NC(=O)C3=CC=C(C=C3)O
How it was run: as §1

[16] = compound: CC1=CC=C(C=C1)SC2=C3C=C(SC3=CN=C2)C(=O)N
How it was run: as §1

Measured: log2 fold change

GON4L (UniProt Q3T8J9)
inactive: erlotinib -0.003 | [1] 0.016 | [2] 0.061 | [3] -0.038 | [4] -0.074 | [5] 0.053 | [6] 0.057 | [7] 0.026 | [8] -0.052 | IRAK-1-4 Inhibitor I -0.039 | ibrutinib 0.026 | [9] 0.022 | ralimetinib 0.029 | [10] -0.042 | [11] -0.04 | [12] -0.02 | [13] -0.017 | [14] 0.01 | [15] 0.002 | [16] -0.044

GPATCH8 (UniProt Q9UKJ3)
inactive: erlotinib -0.028 | [1] -0.083 | [2] 0.098 | [3] 0.067 | [4] -0.05 | [5] -0.018 | [6] -0.067 | [7] -0.053 | [8] -0.033 | IRAK-1-4 Inhibitor I 0.012 | ibrutinib 0.041 | [9] -0.059 | ralimetinib 0.013 | [10] -0.013 | [11] 0.033 | [12] 0.023 | [13] -0.008 | [14] -0.186 | [15] 0.031 | [16] -0.02

GMPS (UniProt P49915)
inactive: erlotinib 0.014 | [1] -0.025 | [2] 0.004 | [3] 0.029 | [4] -0.013 | [5] -0.007 | [6] -0.009 | [7] -0.003 | [8] 0.017 | IRAK-1-4 Inhibitor I -0.004 | ibrutinib -0.034 | [9] 0.003 | ralimetinib 0.009 | [10] 0.013 | [11] 0.006 | [12] -0.032 | [13] 0.025 | [14] -0.024 | [15] 0.015 | [16] 0.02

GLRX2 (UniProt Q9NS18)
inactive: erlotinib 0.006 | [1] 0.04 | [2] 0.02 | [3] 0.022 | [4] 0.035 | [5] 0.049 | [6] 0.04 | [7] 0.128 | [8] 0.09 | IRAK-1-4 Inhibitor I 0.003 | ibrutinib 0.004 | [9] 0.023 | ralimetinib -0.032 | [10] -0.041 | [11] -0.002 | [12] 0.055 | [13] -0.064 | [14] -0.076 | [15] -0.063 | [16] 0.014

GNAS (UniProt Q5JWF2)
inactive: erlotinib 0.003 | [1] 0.061 | [2] -0.04 | [3] -0.004 | [4] 0.028 | [5] 0.002 | [6] 0.034 | [7] 0.005 | [8] 0.043 | IRAK-1-4 Inhibitor I -0.024 | ibrutinib -0.001 | [9] 0.012 | ralimetinib -0.012 | [10] 0.021 | [11] -0.037 | [12] 0.013 | [13] 0.013 | [14] -0.015 | [15] -0.01 | [16] 0.008

GNB1 (UniProt P62873)
inactive: erlotinib 0.053 | [1] 0.018 | [2] 0.082 | [3] -0.019 | [4] -0.015 | [5] -0.022 | [6] 0.023 | [7] -0.017 | [8] -0.031 | IRAK-1-4 Inhibitor I 0.012 | ibrutinib 0.018 | [9] -0.018 | ralimetinib -0.036 | [10] 0.057 | [11] 0.003 | [12] -0.052 | [13] 0.076 | [14] 0.145 | [15] -0.076 | [16] -0.011

GPHN isoform 2 (UniProt Q9NQX3)
inactive: erlotinib 0.001 | [1] 0.003 | [2] 0.02 | [3] -0.01 | [4] -0.018 | [5] 0.024 | [6] 0.018 | [7] 0.002 | [8] 0.016 | IRAK-1-4 Inhibitor I 0.002 | ibrutinib 0.016 | [9] -0.001 | ralimetinib 0.01 | [10] -0.014 | [11] -0.055 | [12] -0.007 | [13] -0.014 | [14] 0.004 | [15] 0.015 | [16] -0.023

GNAQ (UniProt P50148)
inactive: erlotinib -0.04 | [1] -0.053 | [2] -0.127 | [3] -0.074 | [4] -0.043 | [5] 0.023 | [6] 0.065 | [7] 0.018 | [8] -0.041 | IRAK-1-4 Inhibitor I 0.037 | ibrutinib -0.033 | [9] 0.051 | ralimetinib -0.022 | [10] -0.108 | [11] -0.058 | [12] -0.084 | [13] 0.036 | [14] 0.045 | [15] 0.082 | [16] -0.012

GPBP1 isoform 2 (UniProt Q86WP2)
inactive: erlotinib 0.054 | [1] -0.039 | [2] 0.043 | [3] 0.012 | [4] -0.088 | [5] 0.041 | [6] 0.003 | [7] -0.111 | [8] 0.034 | IRAK-1-4 Inhibitor I 0.031 | ibrutinib 0.208 | [9] -0.003 | ralimetinib -0.022 | [10] 0.014 | [11] -0.007 | [12] -0.038 | [13] -0.014 | [14] 0.135 | [15] -0.06 | [16] -0.032

Reprinted from above (2 entries):
GMPS (UniProt P49915)
inactive: erlotinib 0.014 | [1] -0.025 | [2] 0.004 | [3] 0.029 | [4] -0.013 | [5] -0.007 | [6] -0.009 | [7] -0.003 | [8] 0.017 | IRAK-1-4 Inhibitor I -0.004 | ibrutinib -0.034 | [9] 0.003 | ralimetinib 0.009 | [10] 0.013 | [11] 0.006 | [12] -0.032 | [13] 0.025 | [14] -0.024 | [15] 0.015 | [16] 0.02

GLRX2 (UniProt Q9NS18)
inactive: erlotinib 0.006 | [1] 0.04 | [2] 0.02 | [3] 0.022 | [4] 0.035 | [5] 0.049 | [6] 0.04 | [7] 0.128 | [8] 0.09 | IRAK-1-4 Inhibitor I 0.003 | ibrutinib 0.004 | [9] 0.023 | ralimetinib -0.032 | [10] -0.041 | [11] -0.002 | [12] 0.055 | [13] -0.064 | [14] -0.076 | [15] -0.063 | [16] 0.014

Further entries

GPS1 isoform 6 (UniProt Q13098)
inactive: erlotinib 0.005 | [1] -0.016 | [2] 0.014 | [3] 0.002 | [4] 0.027 | [5] 0.002 | [6] -0.004 | [7] -0.014 | [8] -0.012 | IRAK-1-4 Inhibitor I 0.004 | ibrutinib -0.015 | [9] -0.011 | ralimetinib 0.007 | [10] -0.008 | [11] -0.014 | [12] 0.001 | [13] 0.01 | [14] 0.012 | [15] 0.006 | [16] -0.014

GON7 (UniProt Q9BXV9)
inactive: erlotinib -0.004 | [1] 0.727 | [2] 0.077 | [3] 0.009 | [4] -0.062 | [5] -0.005 | [6] -0.095 | [7] 0.094 | [8] 0.072 | IRAK-1-4 Inhibitor I -0.041 | ibrutinib 0.073 | [9] -0.132 | ralimetinib -0.052 | [10] -0.052 | [11] -0.022 | [12] 0.008 | [13] 0.017 | [14] 0.071 | [15] 0.042 | [16] 0.062

GPAA1 (UniProt O43292)
inactive: erlotinib 0.029 | [1] -0.118 | [2] -0.054 | [3] -0.009 | [4] -0.014 | [5] -0.032 | [6] -0.116 | [7] -0.008 | [8] -0.004 | IRAK-1-4 Inhibitor I 0.054 | ibrutinib 0.067 | [9] 0.037 | ralimetinib 0.015 | [10] -0.142 | [11] -0.062 | [12] 0.009 | [13] -0.038 | [14] -0.005 | [15] 0.039 | [16] 0.012

GOLPH3L (UniProt Q9H4A5)
inactive: erlotinib 0.028 | [1] -0.003 | [2] 0.012 | [3] 0.07 | [4] -0.03 | [5] 0.092 | [6] -0.085 | [7] 0.005 | [8] 0.03 | IRAK-1-4 Inhibitor I 0.023 | ibrutinib 0.058 | [9] 0.005 | ralimetinib -0.058 | [10] 0.071 | [11] 0.009 | [12] -0.042 | [13] -0.01 | [14] 0.114 | [15] -0.029 | [16] 0.006

GID4 (UniProt Q8IVV7)
inactive: erlotinib -0.051 | [1] -0.002 | [2] 0.06 | [3] -0.014 | [4] -0.018 | [5] -0.014 | [6] -0.025 | [7] -0.029 | [8] 0.047 | IRAK-1-4 Inhibitor I 0.017 | ibrutinib 0.006 | [9] 0.02 | ralimetinib 0.006 | [10] -0.004 | [11] 0.001 | [12] 0.033 | [13] -0.062 | [14] -0.013 | [15] 0.027 | [16] 0.015

GPS1 (UniProt A8K070)
inactive: erlotinib 0.019 | [1] 0.068 | [2] 0.011 | [3] 0.042 | [4] 0.038 | [5] 0.05 | [6] 0.008 | [7] -0.016 | [8] 0.032 | IRAK-1-4 Inhibitor I 0.01 | ibrutinib 0.008 | [9] 0.017 | ralimetinib 0.037 | [10] -0.005 | [11] -0.035 | [12] -0.033 | [13] -0.01 | [14] -0.002 | [15] -0.065 | [16] -0.015

GLRX3 (UniProt O76003)
inactive: erlotinib 0.01 | [1] 0.019 | [2] 0.011 | [3] -0.02 | [4] 0.018 | [5] 0 | [6] 0.008 | [7] 0.021 | [8] 0.048 | IRAK-1-4 Inhibitor I -0.004 | ibrutinib 0.009 | [9] -0.005 | ralimetinib 0.004 | [10] -0.012 | [11] 0.041 | [12] 0.008 | [13] 0.004 | [14] -0.009 | [15] -0.032 | [16] 0.002
